# Percent effect of library compounds

A: 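Growth of Mycobacterium tuberculosis over 4 days (cholesterol / DPPC medium with tyloxapol); the read-out is not stated. Compounds at 500 µM. The record gives no direction; compounds that gave an IC50 in retests scored well above the rest, so higher reads as more growth inhibition. Of about 18,000 compounds tested this way, about 900 (5%) reached 50% or more in at least one test.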
B: 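Whole-cell growth test on Mycobacterium tuberculosis, read after 3 days in glucose-containing 7H9 medium; the read-out is not stated. Tested at 500 µM. The record gives no direction; compounds that gave an IC50 in retests scored well above the rest, so higher reads as more growth inhibition. Size under these conditions: about 18,000 compounds, about 1,400 of them at 50% or above in at least one test.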

Results are given as percent effect. The record does not define 0% and 100%; most values in the screen are far below 50% and negative numbers occur (in some assays of this library far below -100). The compounds are a random part of those screened.

* CNCC(O)CN1CCc2ccccc2CC1 (stereo unspecified) : A: 85.92%; B: 87.09%
* CC(=O)NCCCS(=O)(=O)c1ncccc1Cl : A: 30.27%; B: -4.149%
* CCn1ccnc1CN(C)CC(=O)N(C)C : A: 8.71%; B: 5.04%
* CC(=O)NC(C)C1CCN(c2ncnc(N)c2Cl)CC1 (stereo unspecified) : A: -25.16%; B: 23.28%
* Cc1ncc(S(C)(=O)=O)c(NC2(C(N)=O)CCCC2)n1 : A: 3.803%; B: 9.819%
* CS(=O)(=O)NCCCN1CCCCC(N)C1 (stereo unspecified) : A: -6.867%; B: -9.283%
* CCN(CC)c1ccc(CN)cc1F : A: -23.14%; B: -16.17%
* Cc1ccccc1C(CC(=O)NC1CC1)NC(N)=O (stereo unspecified) : A: -11.19%; B: 1.6%
* Cc1cc(N2CCOCC2CCO)ncn1 (stereo unspecified) : A: -3.029%; B: 11.73%
* NC(=O)N1CCCC(Nc2nc(C3CC3)ns2)C1 (stereo unspecified) : A: -0.4044%; B: 11.09%
* CC(C)(C)NC(=O)CNc1ncc(C#N)cc1Cl : A: 33.07%; B: 25.2%
* c1nnc(SC2CCOCC2)s1 : A: 10.51%; B: 22.13%
* Cc1ccc(NC(=O)C2CC2)c(CN(C)C)c1 : A: 19.86%; B: 27.37%
* COc1ccc(CCNc2ccc3nnnn3n2)cc1 : A: 19.11%; B: 58.27%
* CCN(CCN1CCCC1)C1CCNCC1 : A: -1.071%; B: 15.18%
* COc1ccc(C(C)CO)cc1 (stereo unspecified) : A: 55.12%; B: 43.13%
* O=C(CO)NC1CCCc2ccccc21 (stereo unspecified) : A: 7.467%; B: 20.8%
* CC(C)(C)NS(=O)(=O)c1ccccc1CN : A: 3.043%; B: 20.3%
* Cc1nc(NCc2n[nH]c(=O)[nH]2)cc(C2CC(O)C2)n1 (stereo unspecified) : A: -21.9%; B: -3.883%
* Cc1cc(C)n2nc(C(=O)N3CCSCC3)nc2n1 : A: 4.552%; B: 3.503%
* Cc1cc(C)c(CNC(=O)C(C)C)c(=O)[nH]1 : A: -11.57%; B: -10.27%
* CC(C)N(CCS(C)(=O)=O)C(=O)NC1CCCCC1 : A: 25.43%; B: 8.465%
* CCS(=O)(=O)CC(=O)NC(C)C(C)C (stereo unspecified) : A: -1.458%; B: -4.98%
* CCNC(=O)CN(CC)C(=O)COc1ccccc1C : A: 10.66%; B: 21.84%
* Cc1nc(CCN2Cc3cnn(CCO)c3C2)cs1 : A: -13.29%; B: 4.099%
* N#CCc1ccc(CO)cc1 : A: -9.457%; B: 8.551%
* Cc1ccc(SCC(=O)N2CCCC2C(N)=O)cc1 (stereo unspecified) : A: -23.91%; B: 8.416%
* NCC1CCC2(CCCC2)O1 (stereo unspecified) : A: -9.786%; B: -1.23%

3 of the entries, repeated:

Cc1nc(NCc2n[nH]c(=O)[nH]2)cc(C2CC(O)C2)n1 (stereo unspecified) read A: -21.9%; B: -3.883%.
CC(=O)NC(C)C1CCN(c2ncnc(N)c2Cl)CC1 (stereo unspecified) read A: -25.16%; B: 23.28%.
CC(C)(C)NS(=O)(=O)c1ccccc1CN read A: 3.043%; B: 20.3%.

Source: ChEMBL document CHEMBL3988442, “University of Dundee, Small-Polar-MMV Screening Library” (2021).